Results on two molecules are retold here after publication doi:10.1101/2022.11.30.518523.

Amino acid sequences for entries named in this document (tags omitted). A change or cut given only in a name is not applied to a line headed by its entry.
UniProt P43298: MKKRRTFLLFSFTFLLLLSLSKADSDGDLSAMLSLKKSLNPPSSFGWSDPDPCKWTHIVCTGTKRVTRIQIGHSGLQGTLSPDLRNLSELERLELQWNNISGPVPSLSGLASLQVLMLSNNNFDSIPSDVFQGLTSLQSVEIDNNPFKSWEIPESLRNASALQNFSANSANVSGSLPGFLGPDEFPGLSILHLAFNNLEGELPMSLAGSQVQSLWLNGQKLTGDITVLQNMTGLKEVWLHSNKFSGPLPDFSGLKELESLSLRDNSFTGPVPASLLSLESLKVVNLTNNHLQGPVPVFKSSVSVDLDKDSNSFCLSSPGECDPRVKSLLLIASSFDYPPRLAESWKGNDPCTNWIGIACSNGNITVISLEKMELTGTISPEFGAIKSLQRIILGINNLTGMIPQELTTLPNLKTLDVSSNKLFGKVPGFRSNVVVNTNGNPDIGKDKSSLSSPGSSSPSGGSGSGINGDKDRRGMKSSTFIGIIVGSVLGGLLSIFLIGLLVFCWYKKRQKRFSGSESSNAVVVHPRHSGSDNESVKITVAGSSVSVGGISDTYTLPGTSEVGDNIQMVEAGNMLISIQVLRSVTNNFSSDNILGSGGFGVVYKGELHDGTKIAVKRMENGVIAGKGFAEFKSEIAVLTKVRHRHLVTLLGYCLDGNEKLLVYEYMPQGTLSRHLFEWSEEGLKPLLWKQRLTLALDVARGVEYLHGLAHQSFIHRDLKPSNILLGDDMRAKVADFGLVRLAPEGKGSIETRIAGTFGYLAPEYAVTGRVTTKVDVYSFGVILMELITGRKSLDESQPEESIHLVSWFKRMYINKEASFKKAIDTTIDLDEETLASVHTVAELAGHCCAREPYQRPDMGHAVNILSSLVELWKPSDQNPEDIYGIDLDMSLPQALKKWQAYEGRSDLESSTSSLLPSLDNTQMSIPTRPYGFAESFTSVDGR
UniProt Q9SIT1: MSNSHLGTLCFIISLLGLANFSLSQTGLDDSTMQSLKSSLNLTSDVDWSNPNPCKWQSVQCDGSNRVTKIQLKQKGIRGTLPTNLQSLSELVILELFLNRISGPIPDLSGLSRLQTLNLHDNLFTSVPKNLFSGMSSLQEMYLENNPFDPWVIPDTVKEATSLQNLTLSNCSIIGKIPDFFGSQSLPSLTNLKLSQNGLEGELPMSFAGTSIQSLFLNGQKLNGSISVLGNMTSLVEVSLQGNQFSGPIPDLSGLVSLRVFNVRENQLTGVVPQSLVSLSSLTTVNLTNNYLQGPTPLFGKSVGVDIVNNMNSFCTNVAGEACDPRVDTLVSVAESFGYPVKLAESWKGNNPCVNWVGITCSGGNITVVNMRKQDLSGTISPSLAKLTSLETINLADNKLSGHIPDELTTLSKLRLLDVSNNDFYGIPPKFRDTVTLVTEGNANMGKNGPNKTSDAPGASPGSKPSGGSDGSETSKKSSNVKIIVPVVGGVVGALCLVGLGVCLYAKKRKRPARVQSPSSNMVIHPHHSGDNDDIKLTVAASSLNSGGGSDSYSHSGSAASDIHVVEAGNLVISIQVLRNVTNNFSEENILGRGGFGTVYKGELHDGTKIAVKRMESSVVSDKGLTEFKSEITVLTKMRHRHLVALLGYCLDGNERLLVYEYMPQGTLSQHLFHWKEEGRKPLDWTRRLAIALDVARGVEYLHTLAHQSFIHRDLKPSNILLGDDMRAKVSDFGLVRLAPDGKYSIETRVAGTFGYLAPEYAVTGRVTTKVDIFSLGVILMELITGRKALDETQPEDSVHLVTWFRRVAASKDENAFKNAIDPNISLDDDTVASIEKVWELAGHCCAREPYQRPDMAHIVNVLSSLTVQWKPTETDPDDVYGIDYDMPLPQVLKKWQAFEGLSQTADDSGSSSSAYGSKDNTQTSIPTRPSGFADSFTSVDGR
UniProt Q9LK43: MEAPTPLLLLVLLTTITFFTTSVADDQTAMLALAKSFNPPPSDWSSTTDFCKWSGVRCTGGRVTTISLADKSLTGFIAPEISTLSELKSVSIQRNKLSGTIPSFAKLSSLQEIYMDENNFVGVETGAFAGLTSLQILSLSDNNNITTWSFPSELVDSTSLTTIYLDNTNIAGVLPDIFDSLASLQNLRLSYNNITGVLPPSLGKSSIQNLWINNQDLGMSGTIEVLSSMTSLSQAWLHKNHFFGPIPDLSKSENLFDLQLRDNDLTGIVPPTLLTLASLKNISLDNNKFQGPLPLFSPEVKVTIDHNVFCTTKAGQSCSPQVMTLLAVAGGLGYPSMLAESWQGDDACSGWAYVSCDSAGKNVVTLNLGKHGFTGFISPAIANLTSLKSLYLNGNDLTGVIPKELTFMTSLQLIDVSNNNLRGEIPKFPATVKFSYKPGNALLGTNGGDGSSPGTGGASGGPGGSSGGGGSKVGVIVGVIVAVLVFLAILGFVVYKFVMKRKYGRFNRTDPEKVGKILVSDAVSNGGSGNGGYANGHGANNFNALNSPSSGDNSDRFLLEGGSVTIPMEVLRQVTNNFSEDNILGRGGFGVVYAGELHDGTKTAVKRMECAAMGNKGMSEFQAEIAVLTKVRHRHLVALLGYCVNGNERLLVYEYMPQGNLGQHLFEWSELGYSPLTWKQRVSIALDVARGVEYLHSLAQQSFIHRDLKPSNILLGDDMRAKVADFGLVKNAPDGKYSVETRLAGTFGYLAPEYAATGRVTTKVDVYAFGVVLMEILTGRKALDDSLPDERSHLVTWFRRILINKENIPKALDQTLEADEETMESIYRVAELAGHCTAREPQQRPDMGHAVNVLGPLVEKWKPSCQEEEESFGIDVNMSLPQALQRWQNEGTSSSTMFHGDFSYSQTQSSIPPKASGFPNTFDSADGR

Assay [1] has as its target intracellular domain (C-terminus) of TMK1 (TMK1C), two-hybrid bait (Arabidopsis) (UniProt P43298). As to the kind of experiment: two-hybrid.
The target in assay [2] is intracellular domain (C-terminus) of TMK3 (TMK3C), two-hybrid bait (Arabidopsis) (UniProt Q9SIT1). As to the kind of experiment: two-hybrid.
Assay [3] addresses intracellular domain (C-terminus) of TMK4 (TMK4C), two-hybrid bait (Arabidopsis) (UniProt Q9LK43). As to the kind of experiment: two-hybrid.
Assay [4] has as its target His-SUMO-TMK1C (C terminus of TMK1) (Arabidopsis) (UniProt P43298). Description: pull-down.

Results are given in words; binding and its absence hold for the method and conditions named. A result given as binding can be weak or reduced; the word gives no strength. For some of these results: Where a sequence is shown, tags or fusion partners need not be part of it.

As for “hydrophilic loop of PIN1 (PIN1L), two-hybrid prey (from UniProt Q9C6B8) (domain or fragment)”, the binding entry in assay [1], in assay [2] and in assay [3] was “binds” each time.

B1: GST-tagged PIN1L (hydrophilic loop of PIN1, 166-464 aa) (domain or fragment, UniProt Q9C6B8 166-464)
chain: PDTAGSIVSIHVDSDIMSLDGRQPLETEAEIKEDGKLHVTVRRSNASRSDIYSRRSQGLSATPRPSNLTNAEIYSLQSSRNPTPRGSSFNHTDFYSMMASGGGRNSNFGPGEAVFGSKGPTPRPSNYEEDGGPAKPTAAGTAAGAGRFHYQSGGSGGGGGAHYPAPNPGMFSPNTGGGGGTAAKGNAPVVGGKRQDGNGRDLHMFVWSSSASPVSDVFGGGGGNHHADYSTATNDHQKDVKISVPQGNSNDNQYVEREEFSFGNKDDDSKVLATDGGNNISNKTTQAKVMPPTSVMTRL
With B1, the binding result in assay [4] is on record as “binds”.
